Data reported in publication PMC8257591.

Target: T1, Myc-tagged mouse GPx1 (glutathione peroxidase type 1), wild type (mouse) (UniProt P11352)
T1 sequence (chain, selenocysteine at 47 (Sec47)): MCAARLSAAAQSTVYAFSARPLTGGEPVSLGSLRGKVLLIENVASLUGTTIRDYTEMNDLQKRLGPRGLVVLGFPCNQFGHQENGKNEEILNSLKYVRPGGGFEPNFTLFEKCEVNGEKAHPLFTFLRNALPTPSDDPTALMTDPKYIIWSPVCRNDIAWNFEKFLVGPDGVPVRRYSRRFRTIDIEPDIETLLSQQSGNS
Test: co-IP; HeLa cells cotransfected with Myc-tagged GPx1 and Flag-tagged TRAF2 (wild type or truncated mutants), stimulated with T/C for 2 h; lysate immunoprecipitated with anti-Myc antibody

## Flag-tagged TRAF2 truncated mutant lacking the N-terminal RING domain (human) (domain or fragment)
  binding: binds

Results are given in words; binding and its absence hold for the method and conditions named. In cells and extracts the contact can be indirect. A result given as binding can be weak or reduced; the word gives no strength. Sequences can lack the tags named with a protein.
